Experimental data: paper PMC10968976, “Targeting CDK9 in Cancer: An Integrated Approach of Combining In Silico Screening with Experimental Validation for Novel Degraders” (Current Issues in Molecular Biology, 2024)

Tested on: NCI-H358 cells
Assay: Cell viability (cell-titer-glo), NCI-H358
Type: cell-based
Experimental: The cell lines used in this study were purchased from ATCC (https://www.atcc.org, accessed on 18 December 2023) and maintained under standard conditions at 37 °C with a 5% CO2 atmosphere. NCI-H-358 cells were cultivated in 1X RPMI 1640 medium, while MIA-PaCa2 cells were cultured using 1X DMEM. Both culture media were supplemented with 10% fetal bovine serum and 1X Penicillin/Streptomycin (Gibco). For culturing the Melma-3M cells, IMDM media fortified with 20% fetal bovine serum and 1X Penicillin/Streptomycin was used. […]
Briefly, for cell viability experiments, after splitting, cells from each respective cell line were plated onto 96-well plates (MSP, Cat # CT-229185) at a density of about 1 × 10^4 cells/mL and 200 µL per well using the appropriate cell culture media after about 24 h at 37 °C, the cell media in each 96-well plate were replaced with media containing the various test compounds at varying concentrations. […] Each plate was gently mixed for ca. 10 min at room temperature and then transferred to a plate reader (Bio-Tek, Synergy HTX, Winooski, VT, USA, multimode reader) for chemiluminescence measurement as a proportional indicator of cell viability.
TB003 and TB008 have also been evaluated for cell growth inhibition and killing using two cell lines, NCI-H358, a non-small cell lung carcinoma-derived cell line, and MIA-PaCa-2, a pancreatic carcinoma-derived cell line. […]

O=C1[O][Pt]2([NH][C@@H]3CCCC[C@H]3[NH]2)[O]C1=O [Oxaliplatin, oxaliplatin]
concentrations with no statistical significance vs control: < 0.11 µM
